Data as given in paper PMC11068891.

Amino acid sequences for entries named in this document (tags omitted).
UniProt Q8IKF0: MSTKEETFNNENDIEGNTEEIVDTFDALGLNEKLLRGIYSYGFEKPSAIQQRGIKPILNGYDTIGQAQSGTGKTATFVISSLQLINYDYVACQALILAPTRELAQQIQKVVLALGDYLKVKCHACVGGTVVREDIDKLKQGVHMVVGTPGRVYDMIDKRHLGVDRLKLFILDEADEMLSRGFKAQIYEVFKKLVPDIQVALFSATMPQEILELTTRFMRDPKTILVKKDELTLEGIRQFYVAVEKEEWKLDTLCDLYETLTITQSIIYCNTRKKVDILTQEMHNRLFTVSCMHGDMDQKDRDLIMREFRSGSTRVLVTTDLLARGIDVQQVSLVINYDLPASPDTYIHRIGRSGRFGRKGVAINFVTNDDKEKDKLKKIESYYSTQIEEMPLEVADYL

Legend:
[1] = target: T1, PfGBP2::GFP (P. falciparum (endogenous in 3D7 parasites)) (UniProt Q8IJX3); test: affinity purification with mass spectrometry; GFP-Trap beads with lysate of PfGBP2::GFP stressed schizonts; same buffers (300 mM NaCl, 0.1% NP40), 4 °C, 2 h; agarose beads as control; LC-MS/MS, SAINT, FDR 1%
T1 sequence: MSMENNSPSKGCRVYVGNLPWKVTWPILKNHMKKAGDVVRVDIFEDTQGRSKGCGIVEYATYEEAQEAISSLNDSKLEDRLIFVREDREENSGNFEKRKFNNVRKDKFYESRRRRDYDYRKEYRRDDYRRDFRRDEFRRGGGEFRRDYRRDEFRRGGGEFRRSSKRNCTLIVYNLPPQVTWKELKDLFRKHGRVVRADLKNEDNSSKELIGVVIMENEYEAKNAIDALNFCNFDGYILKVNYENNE

[2] = target: T2, PfDOZI::GFP (P. falciparum (endogenous in 3D7 parasites)) (UniProt O97285); test: affinity purification with mass spectrometry; GFP-Trap beads with lysate of purified PfDOZI::GFP gametocytes (day 5), native conditions; same buffers (300 mM NaCl, 0.1% NP40), 4 °C, 2 h; agarose beads as control; LC-MS/MS in triplicate, SAINT, FDR 1%
T2 sequence: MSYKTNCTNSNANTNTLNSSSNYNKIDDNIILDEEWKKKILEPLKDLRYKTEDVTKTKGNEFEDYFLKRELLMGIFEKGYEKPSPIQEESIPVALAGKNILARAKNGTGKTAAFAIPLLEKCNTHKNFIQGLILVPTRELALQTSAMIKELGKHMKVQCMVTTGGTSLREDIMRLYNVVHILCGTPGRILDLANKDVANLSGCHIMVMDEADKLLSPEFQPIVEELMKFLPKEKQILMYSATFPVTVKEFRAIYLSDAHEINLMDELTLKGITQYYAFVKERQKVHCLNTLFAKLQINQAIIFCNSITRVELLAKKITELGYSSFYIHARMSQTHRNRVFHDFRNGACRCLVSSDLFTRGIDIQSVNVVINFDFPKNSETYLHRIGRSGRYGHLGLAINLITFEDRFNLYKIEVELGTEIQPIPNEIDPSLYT

[3] = target: T2, PfDOZI::GFP (P. falciparum (endogenous in 3D7 parasites)); test: affinity purification with mass spectrometry; GFP-Trap beads with lysate of PfDOZI::GFP schizonts under normal culture, native conditions; lysis and wash buffer 300 mM NaCl, 20 mM HEPES pH 7.9, 2 mM MgCl2, 0.2 mM EDTA, 0.1% NP40, 0.5 mM DTT; 4 °C, 2 h; agarose beads as control; LC-MS/MS in triplicate, SAINT, FDR 1%
[4] = target: T2, PfDOZI::GFP (P. falciparum (endogenous in 3D7 parasites)); test: condition: only schizonts under nutrient starvation; affinity purification with mass spectrometry; GFP-Trap beads with lysate of PfDOZI::GFP schizonts under nutrient starvation (stressed schizonts), native conditions; same buffers (300 mM NaCl, 0.1% NP40), 4 °C, 2 h; agarose beads as control; LC-MS/MS in triplicate, SAINT, FDR 1%
[5] = target: T3, PfDCP2::GFP (P. falciparum (endogenous in 3D7 parasites)) (UniProt Q8IEM5); test: affinity purification with mass spectrometry; GFP-Trap beads with lysate of PfDCP2::GFP parasites at the schizont stage; same buffers (300 mM NaCl, 0.1% NP40), 4 °C, 2 h; agarose beads as control; LC-MS/MS, SAINT, FDR 1%
T3 sequence: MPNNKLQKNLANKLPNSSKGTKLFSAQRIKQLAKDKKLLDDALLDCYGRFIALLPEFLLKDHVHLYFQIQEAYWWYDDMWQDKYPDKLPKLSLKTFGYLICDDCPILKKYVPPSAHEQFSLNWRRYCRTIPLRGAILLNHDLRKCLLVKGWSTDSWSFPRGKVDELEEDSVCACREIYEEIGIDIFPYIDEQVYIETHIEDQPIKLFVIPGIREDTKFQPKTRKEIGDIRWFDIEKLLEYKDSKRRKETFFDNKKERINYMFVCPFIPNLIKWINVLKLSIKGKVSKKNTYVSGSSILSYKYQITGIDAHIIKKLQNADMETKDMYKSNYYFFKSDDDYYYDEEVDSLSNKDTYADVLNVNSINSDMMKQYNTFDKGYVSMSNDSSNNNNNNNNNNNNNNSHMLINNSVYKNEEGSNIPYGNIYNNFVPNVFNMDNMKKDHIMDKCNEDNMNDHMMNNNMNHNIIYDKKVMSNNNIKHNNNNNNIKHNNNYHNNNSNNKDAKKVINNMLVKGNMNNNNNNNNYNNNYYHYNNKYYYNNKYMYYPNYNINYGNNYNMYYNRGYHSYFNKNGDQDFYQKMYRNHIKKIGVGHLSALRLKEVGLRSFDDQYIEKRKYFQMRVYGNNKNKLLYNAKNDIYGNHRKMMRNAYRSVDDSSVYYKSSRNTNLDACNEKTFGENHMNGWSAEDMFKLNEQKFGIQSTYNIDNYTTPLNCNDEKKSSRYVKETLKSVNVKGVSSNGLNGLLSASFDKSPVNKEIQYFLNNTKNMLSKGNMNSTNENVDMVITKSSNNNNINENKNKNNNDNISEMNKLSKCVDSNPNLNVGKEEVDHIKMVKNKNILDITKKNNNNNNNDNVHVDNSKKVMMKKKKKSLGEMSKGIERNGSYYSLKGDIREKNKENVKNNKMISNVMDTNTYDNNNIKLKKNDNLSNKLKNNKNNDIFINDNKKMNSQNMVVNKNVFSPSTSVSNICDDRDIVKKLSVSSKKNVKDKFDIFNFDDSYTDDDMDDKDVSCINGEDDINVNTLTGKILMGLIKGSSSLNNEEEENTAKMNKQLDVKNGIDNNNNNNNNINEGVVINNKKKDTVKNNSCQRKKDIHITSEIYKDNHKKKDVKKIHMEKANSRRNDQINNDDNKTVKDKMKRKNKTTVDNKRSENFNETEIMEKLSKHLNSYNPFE

[6] = target: T2, PfDOZI::GFP (P. falciparum (endogenous in 3D7 parasites)); test: condition: only schizonts under nutrient starvation; affinity purification with mass spectrometry; GFP-Trap beads with lysate of PfDOZI::GFP schizonts under nutrient starvation (stressed schizonts), native conditions; same buffers (300 mM NaCl, 0.1% NP40), 4 °C, 2 h; agarose beads as control; LC-MS/MS in triplicate, SAINT, FDR 1%; remark: listed apart in the source

Molecule: eIF4A (from UniProt Q8IKF0 1-398)
- binding [1]: binds
- binding [2]: binds
- binding [3]: binds
- binding [4]: no binding

B1: G-strand binding protein 2 (protein, UniProt Q8IJX3 1-246)
chain: T1 sequence
- binding [5]: no binding
- binding [2]: binds
- binding [3]: binds
- binding [6]: no binding

B2: RACK1 kinase (protein, UniProt Q8IBA0 1-323)
chain: MMDNIKEAEISLRGVLEGGHSDWVTSVSTPTDPKLKTIVSASRDKKLIVWNINTDDDSGEIGTAKKSLTGHSQAINDVSISSDGLFALSGSWDHSVRLWDLSLGETIRSFIGHTSDVFSVSFSPDNRQIVSASRDKTIKLWNTLAQCKYTITDQQHTDWITCVRFSPSPNQAIIVSCGWDKLVKVWNLKNCDLNKNLEGHTGVLNTVTISPDGSLCASGGKDGVAKLWDVKEGKHLYSLETGSTINSLCFSPCDYWLCAATDRFIRIWNLESKLIISEIYPVKQSKIGVPWCTSLTWSANGQLLYCGSTDGNIYVYEVKKHSV
- binding [3]: binds
- binding [6]: no binding

B3: PfDOZI (protein, UniProt O97285 1-433)
chain: T2 sequence
- binding [1]: binds
- binding [5]: binds

No constants are given. Whether binding was seen depends on the method and setting. Binding seen in cells or lysates may run through a third protein. A yes stands for co-enrichment or nearness to the bait. Other partners may have been found. For part of these data: No binding means not detected with the bait. Tags and fused reporters may be left off the sequences shown.
